Source: PubChem BioAssay AID540276 (National Center for Advancing Translational Sciences (NCATS), 2011)
Out of some 300,000 compounds screened, about 5,400 (1.8%) were called active. The shares of active, inactive and inconclusive entries below differ from those in the screen. Calls follow the shape of the full dose curve; tested in HEK293 cells. Where the call is inconclusive, the potency comes from a doubtful curve fit.

Assay: qHTS for inhibitors of binding or entry into cells for Marburg Virus
Settings: Marburg virus pseudotyped entry inhibition, cell reporter; activity change, negative = inhibition: at 37.8 µM (top of the series) unless noted
% is scaled to controls: 0 for no effect and ±100 for the full control effect; potency is read from the fitted curve at half-maximal effect.

SMILES | Potency | activity change, negative = inhibition
CCOC(=O)c1sc(NC(=O)CSc2nc(-c3ccco3)cc(C(F)(F)F)n2)c(C(=O)OC)c1C | inconclusive: 6.51 µM [inhibitor, single point] | –
Cc1nn(-c2ccc(F)cc2)c(Cl)c1/C=C(\CCC(=O)O)c1nc2ccccc2s1 | inconclusive: 20.6 µM [activator, single point] | –
CC1CCCCN1C(=O)COC(=O)c1cc([N+](=O)[O-])ccc1N1CCOCC1 (configuration not stated) | inconclusive: 0.282 µM [inhibitor, full curve, poor fit] | –
Cc1cccc(NC(=O)Cn2c(=O)n(CCC(=O)N3CCc4ccccc4C3)c(=O)c3ccccc32)c1 | inconclusive: 2.51 µM [inhibitor, full curve, poor fit] | –
O=C(CCN1CCC(c2ccccc2)C1)c1cccs1 (configuration not stated) | inconclusive: 32.6 µM [inhibitor, single point] | –
Nc1c(C(=O)NCc2ccccc2)nnn1Cc1cccc(Br)c1 | inactive | –
CN(C)S(=O)(=O)c1cc(NC(=O)COC(=O)C2CSC3(C)CCC(=O)N23)ccc1Cl (configuration not stated) | inconclusive: 1 µM [inhibitor, partial curve, poor fit] | –
CC(=O)c1ccc(N2CCN(C(=O)c3ccccc3SCC(=O)NCc3ccco3)CC2)c(F)c1 | inconclusive: 35.5 µM [inhibitor, single point] | –
COc1ccc2c(Cl)c(-c3nnc4n3CCCCC4)sc2c1 | inactive | –
NC(=O)c1sc2nc(-c3cccnc3)ccc2c1N | inconclusive: 35.5 µM [activator, single point] | –
O=S(=O)(c1ccc(Cl)cc1)c1cnc2ccccc2n1 | inactive | –
COc1cccc(NC(=O)CN(c2cccc(C(F)(F)F)c2)S(C)(=O)=O)c1 | inconclusive: 0.206 µM [inhibitor, full curve, poor fit] | –
COc1ccc(C)cc1NC(=O)C(NS(=O)(=O)c1cccc2nsnc12)c1ccccc1 (configuration not stated) | inactive | –
CCOc1ccccc1C(=O)NCC(=O)Nc1ccc(-c2ccccc2)cc1 | inactive | –
Cc1ccc(C)c(N2CCN(C(=O)Cn3nc(Cc4cccnc4)c4ccccc4c3=O)CC2)c1 | inconclusive: 35.5 µM [inhibitor, single point] | –
Cc1ccc(Nc2nc(-c3cccnc3)cs2)cc1Cl | inconclusive: 35.5 µM [inhibitor, single point] | –
COc1cc(-c2noc(-c3cccc(Cl)c3)n2)cc(OC)c1OC | inactive | –
O=C(CCc1ccc(S(=O)(=O)N2CCOCC2)cc1)OCc1nc2ccccc2s1 | inactive | –
Cc1nc(N2N=C3/C(=C/c4ccc(F)cc4)CCCC3C2c2ccc(F)cc2)sc1C(=O)N(C)C (configuration not stated) | inconclusive: 10 µM [inhibitor, partial curve, poor fit] | –
Cc1ccc(CNc2nc(-c3cccs3)nc3ccccc23)cc1 | inconclusive: 5.17 µM [inhibitor, full curve, poor fit] | –
COc1cc(S(=O)(=O)NC2CCCC2)ccc1-n1cnnn1 | inconclusive: 6.31 µM [activator, partial curve, poor fit] | –

Taken from above, two compounds:
SMILES | Potency | activity change, negative = inhibition
COc1ccc(C)cc1NC(=O)C(NS(=O)(=O)c1cccc2nsnc12)c1ccccc1 (configuration not stated) | inactive | –
CCOc1ccccc1C(=O)NCC(=O)Nc1ccc(-c2ccccc2)cc1 | inactive | –

(cont.)

SMILES | Potency | activity change, negative = inhibition
O=S(=O)(c1cc(Cl)ccc1Cl)N1CCNCC1 | inconclusive: 0.206 µM [inhibitor, partial curve, poor fit] | –
Cc1cc(C)c2c(-n3cccc3)c(C(=O)NNS(=O)(=O)c3ccc(F)cc3)sc2n1 | inconclusive: 0.082 µM [activator, full curve, poor fit] | –
O=C(NCCO)/C(=C\c1ccc([N+](=O)[O-])o1)NC(=O)c1ccccc1 | inconclusive: 14.1 µM [inhibitor, single point] | –
Cc1occc1C(=O)NNC(=S)Nc1ccccc1C(F)(F)F | – | inconclusive: 74.5% [activator]
Cc1nn(C(C)C(=O)NCc2cccc(F)c2)c(=O)c2c1sc1ccccc12 (configuration not stated) | inactive | –
N#CC1=C(N)OC2=C(CC/C2=C\c2ccccc2)C1c1ccccc1 (configuration not stated) | inconclusive: 12.6 µM [inhibitor, single point] | –
CCCC(c1nnnn1Cc1cccs1)N1CCN(c2ccc(OC)cc2)CC1 (configuration not stated) | inconclusive: 35.5 µM [inhibitor, single point] | –
CCCCCCCCCCS(=O)(=O)N/N=C/c1ccc([N+](=O)[O-])cc1 | inconclusive: 16.4 µM [inhibitor, single point] | –
CC(C)[C@@H]1NC(=O)c2cc([N+](=O)[O-])cc(F)c2NCCC[C@@H](C(N)=O)NC(=O)[C@H](CO)NC1=O | inconclusive: 29.1 µM [activator, single point] | –
Cc1ccc2cc(CN(CC3CCCO3)C(=S)Nc3ccccc3)c(=O)[nH]c2c1 (configuration not stated) | inconclusive: 14.1 µM [inhibitor, single point] | –
CCCCCN(C(=O)CCC(=O)OCc1ccc(Cl)cc1Cl)c1c(N)n(CCCC)c(=O)[nH]c1=O | active: 2.51 µM | –
Nc1c(C(=O)Nc2ccc(F)cc2)sc2nc(-c3ccco3)ccc12 | inconclusive: 9.2 µM [inhibitor, partial curve, poor fit] | –
COc1ccc(S(=O)(=O)/N=C2/C=CC(=O)C(C)=C2C)cc1 | inconclusive: 0.92 µM [inhibitor, full curve, poor fit] | –
Cc1ccc(S(=O)(=O)N2CCCC2CNC(=O)C(=O)Nc2ccc(F)cc2F)cc1 (configuration not stated) | inconclusive: 12.6 µM [inhibitor, partial curve, poor fit] | –
O=C(CCc1ccccc1)NC(=S)Nc1cccc(Br)c1 | inactive | –
COc1ccccc1CNC(=O)C1Cc2cc(S(=O)(=O)N3CCCCC3)ccc2N1C(C)=O (configuration not stated) | inactive | –
O=C(CNc1ccc2ccccc2c1)N/N=C/c1cc2ccccc2nc1Cl | inconclusive: 0.1 µM [inhibitor, full curve, poor fit] | –
COc1ccc(/C=N/N2CCN(C3c4ccccc4-c4ccccc43)CC2)cc1O | inconclusive: 0.562 µM [activator, full curve, poor fit] | –
Cc1nnnn1-c1ccc(CC(=O)O)cc1 | inactive | –
O=c1oc2cc(O)c(Cl)cc2c2ccccc12 | inconclusive: 4.47 µM [activator, partial curve] | –
COc1ccc(C(C)=O)cc1COC(=O)c1ccc(C)c(S(=O)(=O)N2CCOCC2)c1 | inconclusive: 15.8 µM [inhibitor, single point] | –
